# Hit rate of the full screen: of about 340,000 compounds, about 6,200 (1.8%) were called active. Inconclusive means that the source gave no clear call. Such entries were picked first, then a sample of the others. Calls follow the shape of the dose curve; as a rule, active = well fitted activation curve with a large enough effect; inconclusive = small, poorly fitted or top-dose-only effect; inactive = no such curve, though single readings can be large or run the other way. A potency beside an inconclusive call is a rough fit, not a confirmed value.
# Assay: A quantitative high throughput screen for small molecules that induce DNA re-replication in SW480 colon adenocarcinoma cells. Also: nearly all actives have a fitted effect of over 55% in size. As to re-replication activation: % of control where 0% means no effect.
# Conditions: Hoechst DNA content imaging, 48 h; re-replication activation: at 46.1 µM (top of the series) unless noted
# Procedure, shortened: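 Treated cells incubate 48 hr (37 C, 5% CO2), are stained 40 min with Hoechst, and nuclear fluorescence is enumerated; a rise in nuclei with high DNA signal marks re-replication.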
# Potency is read from the fitted curve at half-maximal effect.
SMILES,Potency,re-replication activation
O=C(Nc1ccccc1N1CCOCC1)C1=NN(c2ccccc2)C(=O)CC1,"inconclusive: 29.1 µM [activator, single point]",
O=C(CSc1n[nH]c(-c2ccccn2)n1)Nc1ccc(F)cc1,active: 3.26 µM,
COc1ccc2[nH]c3c(N4CCN(Cc5ccc6c(c5)OCO6)CC4)ncnc3c2c1,"inconclusive: 29.1 µM [activator, single point]",
CCCCn1c(=O)c(CCC(=O)OCC(=O)NCc2ccc(OC)c(OC)c2)nc2ccccc21,"inconclusive: 0.103 µM [activator, full curve, poor fit]",
COc1ccc(-c2cc(C(F)(F)F)c3c(N)c(C(=O)NCCSC)sc3n2)cc1,"inconclusive: 25.9 µM [activator, single point]",
Cc1cccc(C2=NN(c3ccccc3)[C@@H](C(=O)N3CCOC3=O)[C@@H]2c2ccc(F)cc2)c1,"inconclusive: 2.31 µM [activator, partial curve, poor fit]",
O=C1OC(c2ccccc2)(c2cc(Br)ccc2O)c2ccccc21 (configuration not stated),"inconclusive: 20.6 µM [activator, single point]",
O=C(Nc1cccnc1)c1ccc2snnc2c1,,inactive: 0.619% [at 9.22 µM]
O=C1C(O)=C(O)C(=O)c2ccccc21,"inconclusive: 16.4 µM [activator, single point]",
Cc1ccc(NS(=O)(=O)c2ccc(-c3cnc(C4CC4)o3)cc2)c(C)c1,active: 9.2 µM,
Cc1cc(C)nc(SCC(=O)N/N=C/c2cc(C)n(-c3ccccc3C)c2C)n1,inactive,
CCOC(=O)CC(=O)CSc1nc(-c2ccccc2)cc(-c2ccccc2)c1C#N,"inconclusive: 18.4 µM [activator, single point]",
COc1ccc(S(=O)(=O)NCC2CCCN(C(=O)CC3CCCC3)C2)cc1 (configuration not stated),"inconclusive: 0.0046 µM [activator, full curve, poor fit]",
Cc1ccc(-n2ncc3c(SCc4ccccn4)ncnc32)c(C)c1,inactive,
COc1ccc(N(C(=O)CCl)C(C(=O)NCCc2ccccc2)c2cccs2)cc1Cl (configuration not stated),"inconclusive: 0.231 µM [activator, full curve, poor fit]",
COc1cccc(-c2ccc(NC(=O)C3CCCN(Cc4cnn(C(C)C)c4)C3)cc2)c1 (configuration not stated),"inconclusive: 29.1 µM [activator, single point]",
CC(C)(C)C(=O)Nc1ccc(C(=O)N/N=C/c2ccccc2OC(=O)c2ccc(Cl)cc2Cl)cc1,"inconclusive: 4.61 µM [activator, full curve, poor fit]",
COc1cc(C(=O)N/N=C/c2ccccn2)cc(OC)c1OC,active: 18.4 µM,
CCOC(=O)C1=C(COC(=O)COc2ccccc2C#N)NC(=O)NC1C (configuration not stated),"inconclusive: 29.1 µM [activator, partial curve, poor fit]",
Cc1ccc(-n2ncc3c(NCc4ccco4)ncnc32)cc1C,"inconclusive: 29.1 µM [activator, single point]",
COc1cccc(NC(=O)c2ccc(NC(C)=O)cc2)c1,inactive,

SMILES,Potency,re-replication activation
COc1cc(/C=C2/C(=O)NN(c3cccc(F)c3)C2=O)ccc1OC(=O)c1ccco1,"inconclusive: 32.6 µM [activator, partial curve, poor fit]",
CCOc1cccc(-c2c(C(=O)N/N=C/c3ccsc3)nnn2-c2nonc2N)c1,inactive,
CC(C)[C@@H](C(=O)N1CCN(Cc2ccc3c(c2)OCO3)CC1)n1nnc2ccccc2c1=O,"inconclusive: 14.6 µM [activator, partial curve, poor fit]",
O=C(N/N=C/c1ccc(N2CCOCC2)cc1)c1ccccc1OCCOc1ccccc1,"inconclusive: 29.1 µM [activator, single point]",
COc1cc(C=O)ccc1OS(=O)(=O)c1ccccc1[N+](=O)[O-],"inconclusive: 4.61 µM [activator, full curve, poor fit]",
CCN1C(=O)CC(C(=O)NCCc2ccc(S(N)(=O)=O)cc2)SC1=Nc1ccc(OC)cc1 (configuration not stated),"inconclusive: 23.1 µM [activator, partial curve, poor fit]",
COc1ccccc1CCC(=O)OCc1csc(CC(=O)Nc2ccccc2C)n1,"inconclusive: 16.4 µM [activator, single point]",
Cc1ccc(-n2c(=S)[nH]c3sc4c(c3c2=O)CCc2ccccc2-4)cc1,inactive,
CCCN1CCC(NC(=O)c2cccc(Oc3ccccc3)c2)CC1,"inconclusive: 29.1 µM [activator, single point]",
O=C1/C(=C/c2cccc([N+](=O)[O-])c2)CCc2ccccc21,"inconclusive: 29.1 µM [activator, single point]",
O=C(Nc1nc2ccc(Cl)cc2s1)c1ccc(N2CCCCC2)c([N+](=O)[O-])c1,"inconclusive: 29.1 µM [activator, single point]",
CN1CCN(CCCNC(=O)Nc2cccc3ccccc23)CC1,inactive,
Cc1ccc(-n2c(SCC(=O)Nc3ncc(Cl)cc3Cl)nc3ccccc32)cc1,"inconclusive: 20.6 µM [activator, partial curve, poor fit]",
C#CCn1c(=NC(=O)c2cc(-c3cccs3)nc3ccccc23)sc2cc(S(N)(=O)=O)ccc21,"inconclusive: 12.6 µM [activator, single point]",
Cc1ccc2sc(N(CCN(C)C)C(=O)c3ccc(S(=O)(=O)N4CC(C)OC(C)C4)cc3)nc2c1C (configuration not stated),inactive,
Cc1cccc(C(=O)CC(=O)c2cc(Cl)ccc2O)c1,inactive,
Cc1ccccc1CN(CC(=O)Nc1cccc([N+](=O)[O-])c1)S(=O)(=O)c1ccc(Cl)cc1,"inconclusive: 23.1 µM [activator, single point]",
CCOC(=O)Nc1ccc2c(CN3C(=O)NC(CC)(CC)C3=O)cc(=O)oc2c1,,inactive: -6.93% [at 9.22 µM]
COc1ccc(F)cc1C(=O)C1CCCN(Cc2cccn2-c2cccnc2)C1 (configuration not stated),inactive,
CN(C)C(CNC(=O)c1cc(S(=O)(=O)N2CCOCC2)ccc1F)c1cccs1 (configuration not stated),inactive,
CCNc1nc(Sc2ccc(C)cc2)cc(C(F)(F)F)n1,"inconclusive: 23.1 µM [activator, partial curve, poor fit]",

# One compound at a time (already shown).
# COc1ccc(N(C(=O)CCl)C(C(=O)NCCc2ccccc2)c2cccs2)cc1Cl (configuration not stated) as listed: Potency: inconclusive: 0.231 µM [activator, full curve, poor fit]
# O=C1/C(=C/c2cccc([N+](=O)[O-])c2)CCc2ccccc21 as listed: Potency: inconclusive: 29.1 µM [activator, single point]

# Reference: PubChem BioAssay AID624297 (National Center for Advancing Translational Sciences (NCATS), 2012)
